{"source": "paper doi:10.1101/2022.11.21.517319", "target": "FLAG-tagged SnRK1α1 (Arabidopsis)", "assay": "co-IP", "note": "No constants are given. Whether binding was seen depends on the method and setting. Binding seen in cells or lysates may run through a third protein. Binding calls can cover weak binding; strength is not graded here. Where a sequence is shown, tags or fusion partners need not be part of it.", "data": [{"binder": "HA-tagged MYB75 (protein, UniProt Q9FE25 1-248) MEGSSKGLRKGAWTTEEDSLLRQCINKYGEGKWHQVPVRAGLNRCRKSCRLRWLNYLKPSIKRGKLSSDEVDLLLRLHRLLGNRWSLIAGRLPGRTANDVKNYWNTHLSKKHEPCCKIKMKKRDITPIPTTPALKNNVYKPRPRSFTVNNDCNHLNAPPKVDVNPPCLGLNINNVCDNSIIYNKDKKKDQLVNNLIDGDNMWLEKFLEESQEVDILVPEATTTEKGDTLAFDVDQLWSLFDGETVKFD", "values": [{"measurement": "binding", "result": "binds"}]}, {"binder": "HA-tagged bHLH2 (protein, UniProt Q9CAD0 1-596) MATGENRTVPDNLKKQLAVSVRNIQWSYGIFWSVSASQPGVLEWGDGYYNGDIKTRKTIQAAEVKIDQLGLERSEQLRELYESLSLAESSASGSSQVTRRASAAALSPEDLTDTEWYYLVCMSFVFNIGEGIPGGALSNGEPIWLCNAETADSKVFTRSLLAKSASLQTVVCFPFLGGVLEIGTTEHIKEDMNVIQSVKTLFLEAPPYTTISTRSDYQEIFDPLSDDKYTPVFITEAFPTTSTSGFEQEPEDHDSFINDGGASQVQSWQFVGEEISNCIHQSLNSSDCVSQTFVGTTGRLACDPRKSRIQRLGQIQEQSNHVNMDDDVHYQGVISTIFKTTHQLILGPQFQNFDKRSSFTRWKRSSSVKTLGEKSQKMIKKILFEVPLMNKKEELLPDTPEETGNHALSEKKRREKLNERFMTLRSIIPSISKIDKVSILDDTIEYLQDLQKRVQELESCRESADTETRITMMKRKKPDDEEERASANCMNSKRKGSDVNVGEDEPADIGYAGLTDNLRISSLGNEVVIELRCAWREGILLEIMDVISDLNLDSHSVQSSTGDGLLCLTVNCKHKGTKIATTGMIQEALQRVAWIC", "values": [{"measurement": "binding", "result": "binds"}]}, {"binder": "HA-tagged TTG1 (protein, UniProt Q9XGN1 1-341) MDNSAPDSLSRSETAVTYDSPYPLYAMAFSSLRSSSGHRIAVGSFLEDYNNRIDILSFDSDSMTVKPLPNLSFEHPYPPTKLMFSPPSLRRPSSGDLLASSGDFLRLWEINEDSSTVEPISVLNNSKTSEFCAPLTSFDWNDVEPKRLGTCSIDTTCTIWDIEKSVVETQLIAHDKEVHDIAWGEARVFASVSADGSVRIFDLRDKEHSTIIYESPQPDTPLLRLAWNKQDLRYMATILMDSNKVVILDIRSPTMPVAELERHQASVNAIAWAPQSCKHICSGGDDTQALIWELPTVAGPNGIDPMSVYSAGSEINQLQWSSSQPDWIGIAFANKMQLLRV", "values": [{"measurement": "binding", "result": "binds"}]}]}
